The name of at least one read-out is uncertain.
What was measured:
Format in all cases: in vivo
[1] = Pharmacokinetic study of DX121 (LC/MS in plasma); details: rat; for Time to Cmax: oral 50 mg/kg, plasma, administered compound assayed
Description: (§1) The following study is a determination by LC/MS in plasma of the various molecules over 3 days (11 measurement points at the end). The graphs are always presented in comparison with DX101, which is the reference. […]

[2] = Pharmacokinetic study of DX107 (LC/MS in plasma); details: rat; for Time to Cmax: oral 50 mg/kg, plasma, administered compound assayed
Description: The following study is determination by LC/MS in plasma of the various molecules over 3 days (11 measurement points at the end). The graphs are always presented in comparison with DX101, which is the reference. […]

[3] = Pharmacokinetic study of DX117 (LC/MS in plasma); details: rat; for Time to Cmax: 50 mg/kg, plasma, administered compound assayed
Description: as §1

SMILES | Time to Cmax, DX101 starting from DX121 ([1]; oral 50 mg/kg DX121, plasma, DX101 assayed) | Time to Cmax [1] | Time to Cmax, DX101 starting from DX107 ([2]; oral 50 mg/kg DX107, plasma, DX101 assayed) | Time to Cmax [2] | Time to Cmax [3] | Time to Cmax, DX101 starting from DX117 ([3]; 50 mg/kg DX117, plasma, DX101 assayed)
CCOC(=O)O[C@H]1CC[C@]2(C)[C@H]3CC[C@]4(C)[C@@H]([C@H](C)CCCC(C)C)CC[C@H]4[C@@H]3C[C@@H](NCCc3c[nH]cn3)[C@@]2(O)C1 [DX121, 5α-hydroxy-6β-[2-(1H-imidazol-4-yl)ethylamino]cholestan-3β-yl ethyl carbonate] | 4 min | 1 min | – | – | – | –
CCC(=O)O[C@H]1CC[C@]2(C)[C@H]3CC[C@]4(C)[C@@H]([C@H](C)CCCC(C)C)CC[C@H]4[C@@H]3C[C@@H](NCCc3c[nH]cn3)[C@@]2(O)C1 [DX107, 5α-hydroxy-6β-[2-(1H-imidazol-4-yl)ethylamino]cholestan-3β-yl propionate] | – | – | 240 min | 60 min | – | –
CC(C)CCC[C@@H](C)[C@H]1CC[C@H]2[C@@H]3C[C@@H](NCCc4c[nH]cn4)[C@@]4(O)C[C@@H](O)CC[C@]4(C)[C@H]3CC[C@]12C [DX101, 5α-hydroxy-6β-[2-(1H-imidazol-4-yl)-ethylamino]-cholestan-3β-ol, reference compound] | – | 4 min | – | 480 min | 4 min | –
CC(C)CCCC(C)[C@H]1CCC2C3C[C@@H](NCCc4c[nH]cn4)[C@@]4(O)C[C@@H](OC(=O)NCCc5c[nH]cn5)CC[C@]4(C)C3CC[C@@]21C (stereo partly drawn) [DX117, 5α-hydroxy-6β-[2-(1H-imidazol-4-yl)ethylamino]-cholestan-3β-yl-(2-(1H-imidazol-4-yl)ethyl)carbamate] | – | – | – | – | 4 min | 24 min
